Like-named read-outs stand apart in the source and are kept apart here. These are yes or no findings as the source states them, for the method shown. Binding seen in cells or lysates may run through a third protein. Here binding means that the protein was enriched with, or labelled near, the bait; the list need not be complete. Blank lines part the entries; values can stand above or below the molecule they belong to.
Key:
[1] = molecular target: T1, hypermethylated in cancer 1 (HIC1) (human) (UniProt Q14526); test: affinity purification with mass spectrometry
T1 sequence: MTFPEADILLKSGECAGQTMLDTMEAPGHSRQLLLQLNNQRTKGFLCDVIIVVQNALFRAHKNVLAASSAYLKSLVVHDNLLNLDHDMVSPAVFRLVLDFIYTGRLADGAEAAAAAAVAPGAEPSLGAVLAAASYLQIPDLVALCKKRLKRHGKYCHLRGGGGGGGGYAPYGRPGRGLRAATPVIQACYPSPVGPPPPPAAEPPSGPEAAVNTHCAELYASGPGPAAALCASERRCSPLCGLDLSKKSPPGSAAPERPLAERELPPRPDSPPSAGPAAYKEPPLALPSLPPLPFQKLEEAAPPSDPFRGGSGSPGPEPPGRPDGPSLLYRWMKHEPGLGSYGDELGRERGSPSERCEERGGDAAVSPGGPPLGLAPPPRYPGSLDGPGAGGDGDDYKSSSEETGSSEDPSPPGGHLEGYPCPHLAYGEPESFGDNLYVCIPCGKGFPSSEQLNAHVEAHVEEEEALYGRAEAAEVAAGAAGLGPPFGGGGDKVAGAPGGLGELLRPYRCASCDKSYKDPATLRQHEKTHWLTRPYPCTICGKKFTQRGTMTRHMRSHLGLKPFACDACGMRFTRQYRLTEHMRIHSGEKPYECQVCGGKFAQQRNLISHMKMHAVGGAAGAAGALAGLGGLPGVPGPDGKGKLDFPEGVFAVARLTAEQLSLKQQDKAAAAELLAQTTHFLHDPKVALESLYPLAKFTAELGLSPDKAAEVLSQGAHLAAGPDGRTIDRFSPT

The chains behind the UniProt entries cited, without tags or fusion partners.
UniProt Q9UKT9: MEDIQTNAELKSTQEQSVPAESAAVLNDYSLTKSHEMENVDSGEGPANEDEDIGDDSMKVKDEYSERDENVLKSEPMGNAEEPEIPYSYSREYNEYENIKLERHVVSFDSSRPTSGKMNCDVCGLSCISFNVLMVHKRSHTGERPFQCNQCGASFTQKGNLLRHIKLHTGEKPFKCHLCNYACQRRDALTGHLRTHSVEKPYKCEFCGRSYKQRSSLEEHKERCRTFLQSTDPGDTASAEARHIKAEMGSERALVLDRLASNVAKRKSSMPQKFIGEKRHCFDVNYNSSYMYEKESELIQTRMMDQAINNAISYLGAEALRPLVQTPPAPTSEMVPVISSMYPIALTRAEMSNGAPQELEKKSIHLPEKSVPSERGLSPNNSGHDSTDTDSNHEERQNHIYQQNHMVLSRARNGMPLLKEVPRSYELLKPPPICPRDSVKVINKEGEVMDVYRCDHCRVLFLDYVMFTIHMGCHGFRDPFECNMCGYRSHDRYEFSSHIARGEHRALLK
UniProt Q6W2J9: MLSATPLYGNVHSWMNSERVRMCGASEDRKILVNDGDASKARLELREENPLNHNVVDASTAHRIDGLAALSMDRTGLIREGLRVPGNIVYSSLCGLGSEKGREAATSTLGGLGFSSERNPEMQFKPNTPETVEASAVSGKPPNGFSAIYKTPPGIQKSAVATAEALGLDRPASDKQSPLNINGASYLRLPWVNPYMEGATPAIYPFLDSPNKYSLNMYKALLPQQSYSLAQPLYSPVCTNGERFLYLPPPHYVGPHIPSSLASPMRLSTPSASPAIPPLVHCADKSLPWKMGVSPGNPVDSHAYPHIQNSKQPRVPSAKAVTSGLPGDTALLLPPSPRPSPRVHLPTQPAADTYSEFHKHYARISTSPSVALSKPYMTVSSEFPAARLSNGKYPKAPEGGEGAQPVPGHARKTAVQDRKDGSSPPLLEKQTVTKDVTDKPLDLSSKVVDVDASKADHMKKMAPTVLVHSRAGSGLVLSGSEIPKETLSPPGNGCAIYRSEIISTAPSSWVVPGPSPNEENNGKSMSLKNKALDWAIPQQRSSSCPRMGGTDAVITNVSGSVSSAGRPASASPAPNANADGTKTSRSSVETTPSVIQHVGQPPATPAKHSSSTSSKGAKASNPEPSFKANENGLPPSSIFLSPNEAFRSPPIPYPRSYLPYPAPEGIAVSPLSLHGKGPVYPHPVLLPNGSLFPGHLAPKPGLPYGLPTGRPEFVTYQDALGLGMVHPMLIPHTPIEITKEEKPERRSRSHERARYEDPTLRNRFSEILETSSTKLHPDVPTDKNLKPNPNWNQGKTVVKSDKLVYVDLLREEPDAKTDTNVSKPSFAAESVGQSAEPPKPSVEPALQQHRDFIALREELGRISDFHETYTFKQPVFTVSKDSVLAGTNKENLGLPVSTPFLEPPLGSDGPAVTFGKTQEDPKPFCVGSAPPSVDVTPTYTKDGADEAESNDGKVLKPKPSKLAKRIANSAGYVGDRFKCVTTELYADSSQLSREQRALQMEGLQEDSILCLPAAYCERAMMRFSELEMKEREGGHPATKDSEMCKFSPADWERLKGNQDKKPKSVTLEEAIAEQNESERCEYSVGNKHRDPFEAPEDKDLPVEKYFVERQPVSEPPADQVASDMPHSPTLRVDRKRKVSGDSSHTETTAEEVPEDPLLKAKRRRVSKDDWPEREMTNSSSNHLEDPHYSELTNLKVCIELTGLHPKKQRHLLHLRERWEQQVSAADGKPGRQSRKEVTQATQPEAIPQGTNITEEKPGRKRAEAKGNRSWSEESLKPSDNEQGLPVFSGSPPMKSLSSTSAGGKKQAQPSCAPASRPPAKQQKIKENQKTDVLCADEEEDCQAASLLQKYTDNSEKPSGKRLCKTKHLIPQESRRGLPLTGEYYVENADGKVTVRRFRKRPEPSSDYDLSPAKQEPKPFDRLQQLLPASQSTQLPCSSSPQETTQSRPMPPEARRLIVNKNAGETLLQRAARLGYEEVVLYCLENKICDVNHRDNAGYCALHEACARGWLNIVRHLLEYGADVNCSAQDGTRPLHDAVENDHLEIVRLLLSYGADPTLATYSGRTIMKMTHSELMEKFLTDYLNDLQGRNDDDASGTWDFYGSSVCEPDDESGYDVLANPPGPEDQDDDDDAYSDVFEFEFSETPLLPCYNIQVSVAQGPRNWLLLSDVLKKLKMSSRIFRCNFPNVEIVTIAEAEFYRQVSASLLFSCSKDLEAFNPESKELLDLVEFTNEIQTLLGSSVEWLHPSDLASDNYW
UniProt Q01196: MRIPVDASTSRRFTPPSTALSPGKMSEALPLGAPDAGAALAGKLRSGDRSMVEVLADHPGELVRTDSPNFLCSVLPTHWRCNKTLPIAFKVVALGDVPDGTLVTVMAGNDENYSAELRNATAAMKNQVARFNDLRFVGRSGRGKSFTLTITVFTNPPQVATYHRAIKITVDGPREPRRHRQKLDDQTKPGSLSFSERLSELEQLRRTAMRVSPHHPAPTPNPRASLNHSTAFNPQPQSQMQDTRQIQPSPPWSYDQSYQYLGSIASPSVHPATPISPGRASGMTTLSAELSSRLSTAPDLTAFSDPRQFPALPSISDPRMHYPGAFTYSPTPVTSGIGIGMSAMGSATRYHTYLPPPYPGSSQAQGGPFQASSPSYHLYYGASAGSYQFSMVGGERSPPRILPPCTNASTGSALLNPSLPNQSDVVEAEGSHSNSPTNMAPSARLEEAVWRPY

[2] = molecular target: T1, hypermethylated in cancer 1 (HIC1) (human); test: affinity purification with mass spectrometry; remark: listed apart in the source

Molecule: IKZF3 (from UniProt Q9UKT9 1-509)
binding [1]: binds | binding [2]: binds

B2: MARS (enzyme, UniProt P56192 1-900)
chain: MRLFVSDGVPGCLPVLAAAGRARGRAEVLISTVGPEDCVVPFLTRPKVPVLQLDSGNYLFSTSAICRYFFLLSGWEQDDLTNQWLEWEATELQPALSAALYYLVVQGKKGEDVLGSVRRALTHIDHSLSRQNCPFLAGETESLADIVLWGALYPLLQDPAYLPEELSALHSWFQTLSTQEPCQRAAETVLKQQGVLALRPYLQKQPQPSPAEGRAVTNEPEEEELATLSEEEIAMAVTAWEKGLESLPPLRPQQNPVLPVAGERNVLITSALPYVNNVPHLGNIIGCVLSADVFARYSRLRQWNTLYLCGTDEYGTATETKALEEGLTPQEICDKYHIIHADIYRWFNISFDIFGRTTTPQQTKITQDIFQQLLKRGFVLQDTVEQLRCEHCARFLADRFVEGVCPFCGYEEARGDQCDKCGKLINAVELKKPQCKVCRSCPVVQSSQHLFLDLPKLEKRLEEWLGRTLPGSDWTPNAQFITRSWLRDGLKPRCITRDLKWGTPVPLEGFEDKVFYVWFDATIGYLSITANYTDQWERWWKNPEQVDLYQFMAKDNVPFHSLVFPCSALGAEDNYTLVSHLIATEYLNYEDGKFSKSRGVGVFGDMAQDTGIPADIWRFYLLYIRPEGQDSAFSWTDLLLKNNSELLNNLGNFINRAGMFVSKFFGGYVPEMVLTPDDQRLLAHVTLELQHYHQLLEKVRIRDALRSILTISRHGNQYIQVNEPWKRIKGSEADRQRAGTVTGLAVNIAALLSVMLQPYMPTVSATIQAQLQLPPPACSILLTNFLCTLPAGHQIGTVSPLFQKLENDQIESLRQRFGGGQAKTSPKPAVVETVTTAKPQQIQALMDEVTKQGNIVRELKAQKADKNEVAAEVAKLLDLKKQLAVAEGKPPEAPKGKKKK
binding [2]: binds

The next lines start with the values.

binding [1]: binds | binding [2]: binds
Molecule: BCOR (BCL-6 interacting corepressor) (from UniProt Q6W2J9 1-1755)

binding [1]: binds | binding [2]: binds
Molecule: Runt-related transcription factor 1 (RUNX1) (from UniProt Q01196 1-453)

binding [2]: binds
B1: RARS (enzyme, UniProt P54136 1-660)
chain: MDVLVSECSARLLQQEEEIKSLTAEIDRLKNCGCLGASPNLEQLQEENLKLKYRLNILRKSLQAERNKPTKNMINIISRLQEVFGHAIKAAYPDLENPPLLVTPSQQAKFGDYQCNSAMGISQMLKTKEQKVNPREIAENITKHLPDNECIEKVEIAGPGFINVHLRKDFVSEQLTSLLVNGVQLPALGENKKVIVDFSSPNIAKEMHVGHLRSTIIGESISRLFEFAGYDVLRLNHVGDWGTQFGMLIAHLQDKFPDYLTVSPPIGDLQVFYKESKKRFDTEEEFKKRAYQCVVLLQGKNPDITKAWKLICDVSRQELNKIYDALDVSLIERGESFYQDRMNDIVKEFEDRGFVQVDDGRKIVFVPGCSIPLTIVKSDGGYTYDTSDLAAIKQRLFEEKADMIIYVVDNGQSVHFQTIFAAAQMIGWYDPKVTRVFHAGFGVVLGEDKKKFKTRSGETVRLMDLLGEGLKRSMDKLKEKERDKVLTAEELNAAQTSVAYGCIKYADLSHNRLNDYIFSFDKMLDDRGNTAAYLLYAFTRIRSIARLANIDEEMLQKAARETKILLDHEKEWKLGRCILRFPEILQKILDDLFLHTLCDYIYELATAFTEFYDSCYCVEKDRQTGKILKVNMWRMLLCEAVAAVMAKGFDILGIKPVQRM

— article doi:10.1101/2023.05.15.540505
